We go through 3 molecules from article PMC13343979.

No constants are given. Whether binding was seen depends on the method and setting. In cells and extracts the contact can be indirect. Some results given as binding are weak or reduced against the parent protein; the word gives no strength. For part of these data: Sequences can lack the tags named with a protein.

Experiment [1] addresses T1, IRF7 (endogenous, primary BMDMs) (mouse (endogenous in BMDMs)) (UniProt P70434).
T1 sequence: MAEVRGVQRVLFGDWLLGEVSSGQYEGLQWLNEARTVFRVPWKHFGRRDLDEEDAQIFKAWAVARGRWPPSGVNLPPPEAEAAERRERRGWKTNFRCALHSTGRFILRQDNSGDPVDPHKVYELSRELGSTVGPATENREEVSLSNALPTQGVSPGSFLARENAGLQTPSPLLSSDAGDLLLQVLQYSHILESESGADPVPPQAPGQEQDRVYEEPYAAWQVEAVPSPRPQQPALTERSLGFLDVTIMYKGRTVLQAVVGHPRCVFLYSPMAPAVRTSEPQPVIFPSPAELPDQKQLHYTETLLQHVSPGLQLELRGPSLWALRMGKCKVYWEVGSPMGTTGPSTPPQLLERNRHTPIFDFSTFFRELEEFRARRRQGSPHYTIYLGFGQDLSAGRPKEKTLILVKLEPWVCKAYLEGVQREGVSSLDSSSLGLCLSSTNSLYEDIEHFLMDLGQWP
Briefly: proximity ligation; Duolink PLA in fixed, permeabilised wild-type primary BMDMs, mock or SeV-infected (8 hpi), with anti-IRF7 and anti-USP2 or anti-OTUD5 antibodies.

In experiment [2] the target is T2, V5-tagged IRF7 (IFN regulatory factor 7) (mouse) (UniProt P70434).
T2 sequence: T1 sequence
In words: co-IP; HEK-3KO.IRF7 cells transfected with polyI:C (pIC/LF) or infected with SeV for the indicated times; lysed in EPPS buffer; V5.IRF7 immunoprecipitated with V5-agarose beads overnight, washed with EPPS and RIPA buffers; immunoblot for endogenous USP2 and OTUD5.

B1: OTUD5 (endogenous, primary BMDMs) (enzyme, UniProt Q3U2S4 1-566)
chain: MTILPKKKPPPPDADPANEPPPPGPLPPAPRRGAGVGVGGGGTGVGGGERDRDSGVVGARPRASPPPQGPLPGPPGALHRWALAVPPGAVAGPRPQQASPPPCGGPGGPGGGPGDALGATTAGVGAAGVVVGVGGTVGVGGCCSGPGHSKRRRQAPGVGAVGGASPEREEVGAGYNSEDEYEAAAARIEAMDPATVEQQEHWFEKALRDKKGFIIKQMKEDGACLFRAVADQVYGDQDMHEVVRKHCMDYLMKNADYFSNYVTEDFTTYINRKRKNNCHGNHIEMQAMAEMYNRPVEVYQYSTEPINTFHGIHQNEDEPIRVSYHRNIHYNSVVNPNKATIGVGLGLPSFKPGFAEQSLMKNAIKTSEESWIEQQMLEDKKRATDWEATNEAIEEQVARESYLQWLRDQEKQARQVRGPSQPRKASATCSSATAAASSGLEEWTSRSPRQRSSASSPEHPELHAELGIKPPSPGTVLALAKPPSPCAPGTSSQFSAGGDRATSPLVSLYPALECRALIQQMSPSAFGLNDWDDDEILASVLAVSQQEYLDSMKKNKVHREPPPDKS
Consider B1, for which the binding result in experiment [1] is “binds”.

B2: OTUD5 (enzyme, UniProt Q96G74 1-571)
chain: MTILPKKKPPPPDADPANEPPPPGPMPPAPRRGGGVGVGGGGTGVGGGDRDRDSGVVGARPRASPPPQGPLPGPPGALHRWALAVPPGAVAGPRPQQASPPPCGGPGGPGGGPGDALGAAAAGVGAAGVVVGVGGAVGVGGCCSGPGHSKRRRQAPGVGAVGGGSPEREEVGAGYNSEDEYEAAAARIEAMDPATVEQQEHWFEKALRDKKGFIIKQMKEDGACLFRAVADQVYGDQDMHEVVRKHCMDYLMKNADYFSNYVTEDFTTYINRKRKNNCHGNHIEMQAMAEMYNRPVEVYQYSTGTSAVEPINTFHGIHQNEDEPIRVSYHRNIHYNSVVNPNKATIGVGLGLPSFKPGFAEQSLMKNAIKTSEESWIEQQMLEDKKRATDWEATNEAIEEQVARESYLQWLRDQEKQARQVRGPSQPRKASATCSSATAAASSGLEEWTSRSPRQRSSASSPEHPELHAELGMKPPSPGTVLALAKPPSPCAPGTSSQFSAGADRATSPLVSLYPALECRALIQQMSPSAFGLNDWDDDEILASVLAVSQQEYLDSMKKNKVHRDPPPDKS
Turning to B2, in experiment [2], the binding result is “binds”.

B3: USP2 (endogenous, primary BMDMs) (enzyme, UniProt O88623 1-619)
chain: MSQLSSTLKRYTESSRYTDAPYAKPGYGTYTPSSYGANLAASFLEKEKLGFKPVSPTSFLPRPRTYGPSSILDCDRGRPLLRSDIIGSSKRSESQTRGNERPSGSGLNGGSGFSYGVSSNSLSYLPMNARDQGVTLSQKKSNSQSDLARDFSSLRTSDGYRTSDGYRTSEGFRIDPGNLGRSPMLARTRKELCALQGLYQAASRSEYLTDYLENYGRKGSAPQVLTQAPPPSRVPEVLSPTYRPSGRYTLWEKSKGQASGPSRSSSPGRDTMNSKSAQGLAGLRNLGNTCFMNSILQCLSNTRELRDYCLQRLYMRDLGHTSSAHTALMEEFAKLIQTIWTSSPNDVVSPSEFKTQIQRYAPRFMGYNQQDAQEFLRFLLDGLHNEVNRVAARPKASPETLDHLPDEEKGRQMWRKYLEREDSRIGDLFVGQLKSSLTCTDCGYCSTVFDPFWDLSLPIAKRGYPEVTLMDCMRLFTKEDILDGDEKPTCCRCRARKRCIKKFSVQRFPKILVLHLKRFSESRIRTSKLTTFVNFPLRDLDLREFASENTNHAVYNLYAVSNHSGTTMGGHYTAYCRSPVTGEWHTFNDSSVTPMSSSQVRTSDAYLLFYELASPPSRM
Regarding B3, in experiment [1], the binding result was “binds”.
